Reference: the supplement of paper PMC12067093, “Discovery and optimisation of a covalent ligand for TRIM25 and its application to targeted protein ubiquitination” (Chemical Science, 2025)
This is one part of the list.

Amino acid sequences for entries named in this document (tags omitted). A change or cut given only in a name is not applied to a line headed by its entry.
UniProt O75643, whole entry, looked up: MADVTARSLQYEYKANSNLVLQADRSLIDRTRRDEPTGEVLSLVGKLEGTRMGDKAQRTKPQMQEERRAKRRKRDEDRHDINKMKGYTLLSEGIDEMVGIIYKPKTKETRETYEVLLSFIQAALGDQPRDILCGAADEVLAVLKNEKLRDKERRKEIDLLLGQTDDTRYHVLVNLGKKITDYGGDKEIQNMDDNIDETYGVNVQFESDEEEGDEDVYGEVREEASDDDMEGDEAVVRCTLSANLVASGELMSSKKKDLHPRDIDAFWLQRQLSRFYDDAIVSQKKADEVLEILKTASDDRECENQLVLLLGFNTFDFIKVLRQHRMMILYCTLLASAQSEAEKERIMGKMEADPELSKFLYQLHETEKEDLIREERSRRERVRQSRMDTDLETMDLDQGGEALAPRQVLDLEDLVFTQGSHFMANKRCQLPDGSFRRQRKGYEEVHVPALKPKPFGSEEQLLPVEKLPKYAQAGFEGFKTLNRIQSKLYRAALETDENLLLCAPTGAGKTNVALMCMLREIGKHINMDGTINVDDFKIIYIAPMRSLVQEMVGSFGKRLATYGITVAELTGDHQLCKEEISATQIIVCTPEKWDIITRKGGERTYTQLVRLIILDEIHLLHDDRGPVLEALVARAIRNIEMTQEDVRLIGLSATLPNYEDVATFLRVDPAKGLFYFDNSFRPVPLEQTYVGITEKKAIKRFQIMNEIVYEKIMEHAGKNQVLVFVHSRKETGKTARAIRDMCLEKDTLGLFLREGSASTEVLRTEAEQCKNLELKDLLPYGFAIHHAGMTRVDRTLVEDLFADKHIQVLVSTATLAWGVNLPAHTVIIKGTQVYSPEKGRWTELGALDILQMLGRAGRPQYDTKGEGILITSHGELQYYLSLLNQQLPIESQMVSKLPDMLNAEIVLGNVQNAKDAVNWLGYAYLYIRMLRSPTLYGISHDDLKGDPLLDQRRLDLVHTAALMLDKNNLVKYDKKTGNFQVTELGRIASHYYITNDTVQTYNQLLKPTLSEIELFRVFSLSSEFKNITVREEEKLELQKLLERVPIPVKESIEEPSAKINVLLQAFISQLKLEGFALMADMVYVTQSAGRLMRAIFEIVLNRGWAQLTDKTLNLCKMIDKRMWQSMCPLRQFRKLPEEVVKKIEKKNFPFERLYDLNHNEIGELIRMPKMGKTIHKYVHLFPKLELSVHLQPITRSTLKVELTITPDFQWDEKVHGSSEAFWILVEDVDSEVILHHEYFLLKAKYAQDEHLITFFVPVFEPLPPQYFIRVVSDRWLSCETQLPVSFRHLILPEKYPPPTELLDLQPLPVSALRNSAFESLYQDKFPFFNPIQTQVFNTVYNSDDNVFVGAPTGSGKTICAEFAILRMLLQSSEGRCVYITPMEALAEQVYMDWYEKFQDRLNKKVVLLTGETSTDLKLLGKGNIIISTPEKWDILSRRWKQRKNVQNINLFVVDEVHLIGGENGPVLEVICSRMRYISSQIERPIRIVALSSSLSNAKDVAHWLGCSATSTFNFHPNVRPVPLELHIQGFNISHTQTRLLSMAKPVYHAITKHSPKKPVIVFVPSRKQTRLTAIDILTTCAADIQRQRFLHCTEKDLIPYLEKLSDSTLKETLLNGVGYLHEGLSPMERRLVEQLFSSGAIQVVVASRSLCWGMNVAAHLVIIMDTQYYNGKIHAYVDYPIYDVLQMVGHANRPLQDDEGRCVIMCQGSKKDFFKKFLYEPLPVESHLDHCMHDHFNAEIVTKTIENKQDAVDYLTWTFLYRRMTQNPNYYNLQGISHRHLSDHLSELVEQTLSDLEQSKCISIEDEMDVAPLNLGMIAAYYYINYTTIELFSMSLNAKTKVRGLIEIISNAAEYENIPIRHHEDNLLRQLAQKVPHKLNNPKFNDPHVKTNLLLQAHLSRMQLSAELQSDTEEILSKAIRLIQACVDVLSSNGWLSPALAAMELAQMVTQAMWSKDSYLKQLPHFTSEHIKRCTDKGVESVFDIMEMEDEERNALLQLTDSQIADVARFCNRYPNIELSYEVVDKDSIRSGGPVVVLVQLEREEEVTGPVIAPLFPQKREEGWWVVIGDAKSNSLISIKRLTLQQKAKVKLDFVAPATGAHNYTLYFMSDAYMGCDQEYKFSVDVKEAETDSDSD
UniProt Q13485: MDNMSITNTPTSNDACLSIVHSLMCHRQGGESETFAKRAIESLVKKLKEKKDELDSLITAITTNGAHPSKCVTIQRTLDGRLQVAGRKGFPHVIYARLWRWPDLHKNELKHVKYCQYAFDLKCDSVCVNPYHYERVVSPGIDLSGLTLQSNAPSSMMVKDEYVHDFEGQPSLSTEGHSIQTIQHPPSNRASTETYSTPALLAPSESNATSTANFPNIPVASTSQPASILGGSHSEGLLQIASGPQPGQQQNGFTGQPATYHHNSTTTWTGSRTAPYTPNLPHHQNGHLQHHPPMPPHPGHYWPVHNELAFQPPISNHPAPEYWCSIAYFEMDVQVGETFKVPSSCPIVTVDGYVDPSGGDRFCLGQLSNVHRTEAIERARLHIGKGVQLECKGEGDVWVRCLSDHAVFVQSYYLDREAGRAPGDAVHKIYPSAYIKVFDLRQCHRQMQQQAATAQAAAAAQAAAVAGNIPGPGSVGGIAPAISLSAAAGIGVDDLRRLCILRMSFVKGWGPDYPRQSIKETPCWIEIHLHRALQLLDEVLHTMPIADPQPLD
UniProt Q14683: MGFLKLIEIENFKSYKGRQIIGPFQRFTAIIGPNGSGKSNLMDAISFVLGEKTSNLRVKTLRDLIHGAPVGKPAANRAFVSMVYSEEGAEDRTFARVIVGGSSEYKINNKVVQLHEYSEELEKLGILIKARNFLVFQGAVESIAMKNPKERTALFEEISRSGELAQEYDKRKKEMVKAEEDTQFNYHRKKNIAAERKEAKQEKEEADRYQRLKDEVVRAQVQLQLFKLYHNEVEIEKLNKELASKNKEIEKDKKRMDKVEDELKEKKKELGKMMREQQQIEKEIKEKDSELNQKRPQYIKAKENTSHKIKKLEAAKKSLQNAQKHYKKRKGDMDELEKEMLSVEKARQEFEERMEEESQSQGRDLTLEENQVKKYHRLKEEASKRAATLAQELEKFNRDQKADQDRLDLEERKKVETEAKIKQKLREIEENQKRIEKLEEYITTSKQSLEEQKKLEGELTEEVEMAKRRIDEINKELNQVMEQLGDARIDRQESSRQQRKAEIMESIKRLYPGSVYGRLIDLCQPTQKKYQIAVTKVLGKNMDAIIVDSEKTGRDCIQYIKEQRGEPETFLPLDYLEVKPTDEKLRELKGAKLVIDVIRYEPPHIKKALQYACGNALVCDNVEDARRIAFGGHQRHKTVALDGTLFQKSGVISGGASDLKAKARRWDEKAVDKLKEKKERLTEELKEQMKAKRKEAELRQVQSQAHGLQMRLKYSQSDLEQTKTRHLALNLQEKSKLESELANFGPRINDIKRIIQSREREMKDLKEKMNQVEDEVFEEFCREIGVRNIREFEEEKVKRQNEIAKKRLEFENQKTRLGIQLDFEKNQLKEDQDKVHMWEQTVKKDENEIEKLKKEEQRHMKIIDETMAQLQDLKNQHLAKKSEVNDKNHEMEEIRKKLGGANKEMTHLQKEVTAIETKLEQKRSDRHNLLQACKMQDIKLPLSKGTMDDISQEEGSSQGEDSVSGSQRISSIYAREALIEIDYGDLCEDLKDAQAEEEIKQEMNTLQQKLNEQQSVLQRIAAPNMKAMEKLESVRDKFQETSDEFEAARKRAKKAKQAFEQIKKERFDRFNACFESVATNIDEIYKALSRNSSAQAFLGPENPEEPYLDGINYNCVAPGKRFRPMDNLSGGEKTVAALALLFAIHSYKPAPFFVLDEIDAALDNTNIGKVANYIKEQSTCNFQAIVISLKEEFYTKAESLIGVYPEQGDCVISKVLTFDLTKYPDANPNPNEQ
UniProt Q68D06: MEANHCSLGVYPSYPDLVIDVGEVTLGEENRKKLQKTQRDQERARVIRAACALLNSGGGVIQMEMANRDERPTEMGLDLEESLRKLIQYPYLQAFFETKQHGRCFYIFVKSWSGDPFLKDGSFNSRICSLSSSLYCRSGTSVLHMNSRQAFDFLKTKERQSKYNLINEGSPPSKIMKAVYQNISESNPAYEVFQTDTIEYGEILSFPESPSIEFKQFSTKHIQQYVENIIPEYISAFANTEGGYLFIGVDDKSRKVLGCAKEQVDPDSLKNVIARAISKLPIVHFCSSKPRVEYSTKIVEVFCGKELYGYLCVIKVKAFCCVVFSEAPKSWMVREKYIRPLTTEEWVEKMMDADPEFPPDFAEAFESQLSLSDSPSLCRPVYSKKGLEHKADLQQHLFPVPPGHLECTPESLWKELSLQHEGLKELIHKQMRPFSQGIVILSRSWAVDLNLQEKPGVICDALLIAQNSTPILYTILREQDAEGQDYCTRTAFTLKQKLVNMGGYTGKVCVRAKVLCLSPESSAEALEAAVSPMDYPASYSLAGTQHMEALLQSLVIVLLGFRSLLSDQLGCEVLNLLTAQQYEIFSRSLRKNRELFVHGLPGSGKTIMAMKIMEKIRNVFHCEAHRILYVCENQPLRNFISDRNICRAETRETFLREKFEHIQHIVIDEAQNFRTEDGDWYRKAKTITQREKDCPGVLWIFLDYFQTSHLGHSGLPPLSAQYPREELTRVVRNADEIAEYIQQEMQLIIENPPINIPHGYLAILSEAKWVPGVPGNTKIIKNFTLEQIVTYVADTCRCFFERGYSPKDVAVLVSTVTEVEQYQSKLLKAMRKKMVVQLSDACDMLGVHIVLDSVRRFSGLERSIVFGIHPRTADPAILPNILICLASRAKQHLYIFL
UniProt Q9Y6M5: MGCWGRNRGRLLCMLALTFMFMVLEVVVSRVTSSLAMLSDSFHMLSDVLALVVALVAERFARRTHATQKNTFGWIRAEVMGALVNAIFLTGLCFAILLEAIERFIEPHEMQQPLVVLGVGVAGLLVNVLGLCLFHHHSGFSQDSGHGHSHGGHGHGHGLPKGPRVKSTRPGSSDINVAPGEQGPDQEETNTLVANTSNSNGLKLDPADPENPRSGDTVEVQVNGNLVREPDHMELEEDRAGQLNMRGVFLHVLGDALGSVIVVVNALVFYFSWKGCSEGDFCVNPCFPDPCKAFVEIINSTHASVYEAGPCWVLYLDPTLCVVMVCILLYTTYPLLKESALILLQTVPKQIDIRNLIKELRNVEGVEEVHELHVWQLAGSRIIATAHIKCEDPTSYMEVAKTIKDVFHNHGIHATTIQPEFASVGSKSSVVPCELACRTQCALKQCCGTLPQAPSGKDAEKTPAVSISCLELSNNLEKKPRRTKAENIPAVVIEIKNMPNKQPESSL
UniProt Q92540: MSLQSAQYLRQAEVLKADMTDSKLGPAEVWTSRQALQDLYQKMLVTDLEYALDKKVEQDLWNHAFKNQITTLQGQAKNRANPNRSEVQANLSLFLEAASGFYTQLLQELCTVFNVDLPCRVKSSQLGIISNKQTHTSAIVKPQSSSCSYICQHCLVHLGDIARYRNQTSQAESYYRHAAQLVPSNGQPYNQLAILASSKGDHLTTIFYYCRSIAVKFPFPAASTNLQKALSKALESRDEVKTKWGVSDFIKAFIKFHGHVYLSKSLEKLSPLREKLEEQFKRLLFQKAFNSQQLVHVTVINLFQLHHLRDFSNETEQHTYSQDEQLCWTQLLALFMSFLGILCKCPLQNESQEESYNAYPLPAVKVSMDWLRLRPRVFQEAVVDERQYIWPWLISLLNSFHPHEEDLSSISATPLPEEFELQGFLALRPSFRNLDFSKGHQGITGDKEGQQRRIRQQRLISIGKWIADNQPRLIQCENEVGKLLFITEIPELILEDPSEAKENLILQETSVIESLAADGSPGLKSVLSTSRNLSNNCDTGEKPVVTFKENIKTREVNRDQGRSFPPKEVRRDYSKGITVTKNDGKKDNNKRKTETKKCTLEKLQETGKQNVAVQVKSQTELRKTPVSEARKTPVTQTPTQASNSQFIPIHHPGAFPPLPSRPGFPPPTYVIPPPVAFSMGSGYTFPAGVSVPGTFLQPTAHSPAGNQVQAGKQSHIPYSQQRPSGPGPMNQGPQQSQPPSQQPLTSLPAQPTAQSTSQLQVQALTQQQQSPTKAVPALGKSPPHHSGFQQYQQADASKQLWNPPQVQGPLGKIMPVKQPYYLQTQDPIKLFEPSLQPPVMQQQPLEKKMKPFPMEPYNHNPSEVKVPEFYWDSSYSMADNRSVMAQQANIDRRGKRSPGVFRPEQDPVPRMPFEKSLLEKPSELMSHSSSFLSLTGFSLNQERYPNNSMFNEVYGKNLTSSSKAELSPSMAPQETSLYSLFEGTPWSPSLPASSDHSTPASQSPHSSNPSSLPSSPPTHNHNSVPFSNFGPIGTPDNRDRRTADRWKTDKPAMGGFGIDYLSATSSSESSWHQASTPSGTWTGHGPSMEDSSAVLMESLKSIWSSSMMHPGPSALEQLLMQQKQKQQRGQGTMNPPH
UniProt P62316, whole entry, looked up: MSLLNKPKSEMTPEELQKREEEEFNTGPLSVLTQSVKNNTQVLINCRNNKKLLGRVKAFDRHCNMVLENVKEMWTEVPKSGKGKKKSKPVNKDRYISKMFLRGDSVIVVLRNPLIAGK

Compound: Cc1cc(ccc1-c1ccccc1)C(=O)N1CCCN(CC1)C(=O)CCl [compound 10]
Test: probe-labelled cysteine peptide fold change vs DMSO (competition) (log2 fold change); higher = less target engagement (more negative = stronger competition)
Details: THP-1, incubation time: 4 h
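Note: competitive profiling in live THP-1 cells: cysteine peptides tagged with an iodoacetamide desthiobiotin (IA-DTB) probe, intensity after compound treatment relative to DMSO-treated cells.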

Row | Target | probe-labelled cysteine peptide fold change (10 µM) | probe-labelled cysteine peptide fold change (50 µM)
1 | SNRNP200_O75643_331_MMILYCTLLASAQSEAEK (UniProt O75643) | -0.0246 | 0.526
2 | SMARCA4_P51532_1046_ICNHPYMFQHIEESFSEHLGFTGGIVQGLDLYR (UniProt P51532) | -0.148 | 0.107
3 | SNRNP200_O75643_1580_LTAIDILTTCAADIQR (UniProt O75643) | -0.0527 | 0.0566
4 | SMAD4_Q13485_127_CDSVCVNPYHYER (UniProt Q13485) | 0.122 | 0.186
5 | SMC1A_Q14683_1180_EQSTCNFQAIVISLK (UniProt Q14683) | 0.0747 | 0.0957
6 | SLFN13_Q68D06_286_LPIVHFCSSKPR (UniProt Q68D06) | 0.0763 | -0.265
7 | SMAD3_P84022_121_DEVCVNPYHYQR (UniProt P84022) | -0.00681 | -0.0626
8 | SMC1A_Q14683_1073_FDRFNACFESVATNIDEIYK (UniProt Q14683) | 0.178 | -0.171
9 | SMC1A_Q14683_1210_AESLIGVYPEQGDCVISK (UniProt Q14683) | -0.118 | -0.0803
10 | SMCHD1_A6NHR9_985_FSGAPNLPVYVVDCSSSGTSILTGSAIQVQNIKK (UniProt A6NHR9) | 0.018 | -0.353
11 | SLC30A1_Q9Y6M5_447_QCCGTLPQAPSGK (UniProt Q9Y6M5) | -0.473 | -0.86
12 | SMAD4_Q13485_115_YCQYAFDLK (UniProt Q13485) | 0.0205 | -0.164
13 | SLC39A10_Q9ULF5_598_NYLCIEEEK (UniProt Q9ULF5) | -0.213 | -0.202
14 | SMPD4_Q9NXE4_766_FAGQMAALCSR (UniProt Q9NXE4) | -0.138 | -0.428
15 | SMG7_Q92540_537_NLSNNCDTGEKPVVTFK (UniProt Q92540) | -0.196 | -0.392
16 | SNRPB_P14678_45_HMNLILCDCDEFR (UniProt P14678) | 0.245 | 0.299
17 | SNRPD2_P62316_46_NNTQVLINCR (UniProt P62316) | 0.0588 | -0.00654
18 | SNRNP200_O75643_1731_FLYEPLPVESHLDHCMHDHFNAEIVTK (UniProt O75643) | 0.129 | 0.126
19 | SMARCB1_Q12824_167_TFPLCFDDHDPAVIHENASQPEVLVPIRLDMEIDGQKLR (UniProt Q12824) | -0.136 | -0.124

Records 8 to 9, quoted:
Row | Target | probe-labelled cysteine peptide fold change (10 µM) | probe-labelled cysteine peptide fold change (50 µM)
8 | SMC1A_Q14683_1073_FDRFNACFESVATNIDEIYK (UniProt Q14683) | 0.178 | -0.171
9 | SMC1A_Q14683_1210_AESLIGVYPEQGDCVISK (UniProt Q14683) | -0.118 | -0.0803
